# Measurements from US5739104A, “Anti-fungal agents” (Schering Corporation, priority 1995, dated 1998).
# Part of at least one peptide drawing is inferred or uncertain, most often the ends. Starred links: 1 amine or outer side, 2 acyl side, 3 side chain; linkers in the order of their positions; H or OH if unused. Non-standard residues stand in square brackets, D forms with d. Residues, ends and D or L forms follow the SMILES beside them. X1 = O=C([C@H](O[*:1])C1CCCCC1)[*:2]; NMeF = CN[C@@H](Cc1ccccc1)C(=O)O; NMeT = CN[C@H](C(=O)O)[C@@H](C)O; aIle = CC[C@@H](C)[C@H](N)C(=O)O; NMeV = CN[C@H](C(=O)O)C(C)C; Aze = O=C(O)[C@@H]1CCN1
# Tested on: C. Albicans, C-43
# Test: In vivo anti-fungal activity, C. albicans infection study in mice
# Conditions: once a day for 4 days starting 24 hours post infection
# Method: In vivo anti-fungal activity for compounds of formula I of the invention was determined by using the test protocol set forth in Cacciapuoti et al, ANTIMICROBIAL AGENTS AND CHEMOTHERAPY, Vol.36, No. 1, January 1992, p. 64-67, which is hereby incorporated by reference. The specific test protocol used to obtain the data given below, appears in the just above mentioned article at pages 64 and 65 under the heading "C. albicans infection studies". Data obtained from this test protocol are as follows:
# The numbering for the compounds tested is the same as the numbering used for the compounds in the rest of the application. The mice used in the above experiment were Charles River, white, male, mice weighing between 18 and 20 grams. The organism used to infect the mice was C. Albicans, C-43, 1XE6 CFU/mice, 0.1 M1 IV. The treatment was once a day for 4 days starting 4 hours post infection for those compounds which have a * next to them. For those compounds which have no * next to them, the treatment was once a day for 4 days starting 24 hours post infection. The dose was 0.1 ml/mouse in either case. The vehicle used with the compounds was Tween 80:Ethanol:PBS (1:9:40 or 2%:18%:80%)
smiles,measurement,setting,value
"CC[C@@H](C)[C@@H]1NC(=O)[C@@H]2CCN2C(=O)[C@H](Cc2ccccc2)N(C)C(=O)[C@H](Cc2ccccc2)NC(=O)[C@H](C(C)C)N(C)C(=O)[C@@H](C2CCCCC2)OC(=O)[C@H]([C@@H](C)O)N(C)C(=O)[C@H](CC(C)C)NC(=O)[C@H](C(C)C)N(C)C1=O [Compound 2, Cyclo-depsi-N-methyl-threonyl-(2-hydroxy-2-cyclohexylacetyl)-N-methylvalyl-phenylalanyl-N-methylphenylalanyl-azetidinyl-allo-isoleucyl-N-methylvalyl-leucine] (cyclo([Aze][aIle][NMeV]L[NMeT][X1][NMeV]F[NMeF]))",% Survival,5 MPK PO,50%
same,CFUs (GM),5 MPK PO,7.50
same,% Survival,10 MPK PO,50%
same,CFUs (GM),10 MPK PO,7.50
same,% Survival,20 MPK PO,70%
same,CFUs (GM),20 MPK PO,6.50
same,% Survival,40 MPK PO,90%
same,CFUs (GM),40 MPK PO,5.80
